The text below walks through data of publication PMC12431657, “Discovery and mechanistic insights of dibenzoylmethane as a broad spectrum inhibitor of coronavirus” (PLOS Pathogens, 2025).

In the assay the test system is HCoV-OC43. The arrangement: species or system RD; HTS, protection from HCoV-OC43 induced cell death, luminescent cell viability (CellCounting-Lite 2.0), inhibition rate. Conditions: 24 h post infection, 1 h compound pre-incubation, 10 µM, inhibitor.

Structures can show the parent of a compound that is named as a salt. Where two headings read alike, the source gives them in different places. In all, about 3,300 compounds went through this assay and about 60 (2%) showed an effect of 50% or more. Some of the results follow.

Regarding `CC(C)=CCC[C@](C)(O[C@@H]1O[C@H](CO[C@@H]2O[C@H](CO)[C@@H](O)[C@H](O)[C@H]2O)[C@@H](O)[C@H](O)[C@H]1O)[C@H]1CC[C@]2(C)[C@@H]1[C@H](O)C[C@@H]1[C@@]3(C)CC[C@H](O[C@@H]4O[C@H](CO)[C@@H](O)[C@H](O)[C@H]4O[C@@H]4O[C@H](CO)[C@@H](O)[C@H](O)[C@H]4O)C(C)(C)[C@@H]3CC[C@]12C` [Ginsenoside Rb1], the “OC43 Inhibition rate” value turned out to be 0.2%.
In the case of `O=C(O)CC(=O)OC[C@H]1O[C@@H](Oc2c(-c3ccc(O)c(O)c3)oc3cc(O)cc(O)c3c2=O)[C@H](O)[C@@H](O)[C@@H]1O` [Quercetin 3-O-(6''-O-malonyl)-β-D-glucoside], the “OC43 Inhibition rate” value is reported as -1.3%.
With `CC(C)(O)[C@@H]1CC[C@](C)([C@H]2[C@@H](O)C[C@@]3(C)[C@@H]4C[C@H](O)[C@H]5C(C)(C)[C@@H](O)CC[C@]5(C)C4=CC[C@]23C)O1` [Astragenol], the “OC43 Inhibition rate” value was -0.1%.
For `Cc1cc(O)c2c(c1)C(=O)c1cc(O)cc(O)c1C2=O` [Emodin], the “OC43 Inhibition rate” value is given as -2.2%.
With `C=C1C[C@@]23CC[C@H]4[C@@](C)(CCC[C@@]4(C)C(=O)O)[C@@H]2CC[C@@H]1C3` [Kaurenoic acid], the “OC43 Inhibition rate” value is on record as -0.8%.
On the same count and under the same terms, then `Cc1c(O)c(C)c2occ(Cc3ccc4c(c3)OCO4)c(=O)c2c1O` [Methylophiopogonone A], with 4%.
Still for that read-out and setting: under `CC1(C)CC[C@]23CO[C@@]4(C=C[C@@H]5[C@@]6(C)CC[C@H](O)[C@@](C)(CO)[C@@H]6CC[C@@]5(C)[C@]4(C)C[C@@H]2O)[C@@H]3C1` [Saikogenin F] stands 28.7%; under `COc1ccc(/C=C/C(=O)O)cc1O` [Isoferulic acid], -1.3%; under `CC(C)=CCOc1c2ccoc2cc2oc(=O)ccc12` [Isoimperatorin], 0.5%.
Still for that read-out and setting: then `CC(C)C1=C[C@H]2[C@@H](CC[C@]2(C)O)[C@](C)(O)CC1` [Alismoxide], with -0.9%.
In the case of `C/C=C1\[C@H]2C=C(C)C[C@]1(N)c1ccc(=O)[nH]c1C2` [(-)-Huperzine A], the “OC43 Inhibition rate” value is given as 2.3%.
For `C=CCc1cc(OC)c(O[C@@H](C)[C@H](O)c2ccc(O)c(OC)c2)c(OC)c1` [Myrislignan], the “OC43 Inhibition rate” value is 0%.
Regarding `O=C(O)CCc1ccc(O)c(O)c1` [Dihydrocaffeic acid], the “OC43 Inhibition rate” value is on record as -1%.
On the same count and under the same terms, under `CCCCCCCCCCCC(=O)OC` [Methyl laurate] stands 0.1%; under `CC(CC(=O)O)CC(=O)O` [3-Methylglutaric acid], 0.7%.
The same measure, in the same setting: then `COc1cc(O)c2c(=O)c3c(O[C@@H]4O[C@H](CO)[C@@H](O)[C@H](O)[C@H]4O)ccc(O)c3oc2c1` [Swertianolin], with -0.3%; and `N[C@H]1[C@H](O[C@H]2[C@H](O)[C@@H](N)C(O)O[C@@H]2CO)O[C@H](CO)[C@@H](O)[C@@H]1O` (some centres unmarked) [Chitobiose (dihydrochloride)], with 0.1%.
As to `COc1cc2c(cc1OC)[C@@H]1Cc3ccc(OC)c(OC)c3C[N@@+]1([O-])CC2` [(-)-Corynoxidine], the “OC43 Inhibition rate” value is reported as 0.9%.
As to `Cn1cc(C(N)=O)ccc1=O` [Nudifloramide], the “OC43 Inhibition rate” value was found to be 2.9%.
Consider `O=C(O)/C=C/c1ccccc1` [trans-Cinnamic acid], for which, where the note is “OC43 Inhibition rate, 24 h”, the “OC43 Inhibition rate” value is -0.5%.
On to `O=c1ccc2cc(O)ccc2o1` [6-Hydroxycoumarin], for which the “OC43 Inhibition rate” value amounted to 0.2%.
For `O=C(O)c1ccccc1` [Benzoic acid], the “OC43 Inhibition rate” value was -0.2%.
Regarding `O=C(O)c1cccnc1C(=O)O` [Quinolinic acid], the “OC43 Inhibition rate” value is -0.2%.
On to `CCOCc1ccccc1` [(Ethoxymethyl)benzene], for which the “OC43 Inhibition rate” value is recorded as -2.3%.
`O=C(O)c1ccc(C(=O)O)o1` [2,5-Furandicarboxylic acid]: the “OC43 Inhibition rate” value was 1.7%.
For `O=c1c2cc(O)c(O)cc2oc2c([C@@H]3O[C@H](CO)[C@@H](O)[C@H](O)[C@H]3O)c(O)cc(O)c12` [Isomangiferin], the “OC43 Inhibition rate” value is 3.6%.
On to `COc1ccc2cc3[n+](cc2c1OC)CCc1cc2c(cc1-3)OCO2` [Berberine (chloride)], for which, where the note is “OC43 Inhibition rate, 24 h”, the “OC43 Inhibition rate” value is on record as -0.3%.
On to `CO[C@H]1[C@H](O)[C@@H](O)[C@@H](O)[C@H](O)[C@@H]1O` [D-Pinitol], for which the “OC43 Inhibition rate” value was -0.3%.
`Cc1cc(C)c(O)c(C)c1` [2,4,6-Trimethylphenol]: the “OC43 Inhibition rate” value is 0.8%.
Turning to `O=c1cc(-c2ccc(O)cc2)oc2cc(O)c(O)c(O)c12` [Scutellarein], the “OC43 Inhibition rate” value was determined as 1%.
In the case of `Oc1ccc([C@H]2Oc3cc(O)cc(O)c3C[C@@H]2O)cc1` [(+)-Afzelechin], the “OC43 Inhibition rate” value amounted to 4.5%.
As for `O=C(O)[C@@H]1CCCCN1` [L-Pipecolic acid], the “OC43 Inhibition rate” value is given as 6.6%.
Turning to `O=C[C@H](O)[C@@H](O)[C@H](O)[C@H](O)COP(=O)(O)O` [D-Glucose 6-phosphate (disodium salt)], the “OC43 Inhibition rate” value came out at 4.5%.
With `C=C(CCC(C(=O)O)[C@H]1[C@H](O)C[C@@]2(C)C3=CC[C@H]4C(C)(C)[C@@H](OC(C)=O)CC[C@]4(C)C3=CC[C@]12C)C(C)C` (some centres unmarked) [Dehydropachymic acid], the “OC43 Inhibition rate” value is 4.1%.
As to `NCCc1c[nH]cn1` [Histamine (phosphate)], the “OC43 Inhibition rate” value (OC43 Inhibition rate, 24 h) is reported as -6.6%.
For the compound `O=C(O)CC(O)CC(=O)O` [3-Hydroxyglutaric acid], the “OC43 Inhibition rate” value is 0.4%.
As to `CC1=C(C/C=C(\C)CCC[C@H](C)CCC[C@H](C)CCCC(C)C)C(=O)c2ccccc2C1=O` [Vitamin K1], the “OC43 Inhibition rate” value is 8.3%.
As to `O=C1CCc2ccccc2O1` [Dihydrocoumarin], the “OC43 Inhibition rate” value is -0.6%.
On to `CCOC(=O)CC(=O)O` [3-Ethoxy-3-oxopropanoic acid], for which the “OC43 Inhibition rate” value was -0.2%.
As to `O=C(/C=C/c1ccccc1)c1ccccc1` [trans-Chalcone], the “OC43 Inhibition rate” value (OC43 Inhibition rate, 24 h) was determined as 39.6%.
As for `C[N+](C)(C)CCOP(=O)([O-])OC[C@H](O)CO` [sn-Glycero-3-phosphocholine], the “OC43 Inhibition rate” value worked out at 0%.
Turning to `CC1=CC(=O)[C@@H]2C[C@H]1C2(C)C` [Verbenone], the “OC43 Inhibition rate” value is given as -0.2%.
As for `O=c1ccn([C@@H]2O[C@H](COP(=O)(O)O)[C@@H](O)[C@H]2O)c(=O)[nH]1` [Uridine 5'-monophosphate disodium salt], the “OC43 Inhibition rate” value (OC43 Inhibition rate, 24 h) was -4.9%.
On to `O=C1O[C@H]([C@@H](O)CO)[C@H](O)[C@@H]1O` [L-Gulono-1,4-lactone], for which the “OC43 Inhibition rate” value is recorded as -0.9%.
Take `COc1ccc(-c2coc3cc(O)c(OC)c(O)c3c2=O)cc1O` [Iristectorigenin A]: the “OC43 Inhibition rate” value amounted to 0.2%.
In the case of `COc1cc(/C=C/C(=O)O)ccc1O` [Ferulic acid], for the setting “OC43 Inhibition rate, 24 h”, the “OC43 Inhibition rate” value is 1.4%.
In the case of `CC(C)=CCC[C@@](C)(O)[C@H]1CC[C@]2(C)[C@@H]1[C@H](O)C[C@@H]1[C@@]3(C)CC[C@H](O[C@@H]4O[C@H](CO)[C@@H](O)[C@H](O)[C@H]4O[C@@H]4O[C@H](CO)[C@@H](O)[C@H](O)[C@H]4O[C@@H]4OC[C@@H](O)[C@H](O)[C@H]4O)C(C)(C)[C@@H]3CC[C@]12C` [Notoginsenoside Ft1], the “OC43 Inhibition rate” value was 0%.
Turning to `OC[C@H]1O[C@@H](Oc2cc(O)cc(/C=C/c3ccc(O)c(O)c3)c2)[C@H](O)[C@@H](O)[C@@H]1O` [Astringin], the “OC43 Inhibition rate” value was -0.2%.
For the compound `COC1=CC(=O)C=C(OC)C1=O` [2,6-Dimethoxy-1,4-benzoquinone], the “OC43 Inhibition rate” value turned out to be 0.1%.
As to `N[C@H]1C(O)O[C@H](CO)[C@@H](O)[C@@H]1O` (some centres unmarked) [Glucosamine (hydrochloride)], the “OC43 Inhibition rate” value (OC43 Inhibition rate, 24 h) amounted to 0.9%.
As for `COC(=O)c1ccco1` [Methyl 2-furoate], the “OC43 Inhibition rate” value is on record as -0.3%.
Same read-out and setting: then `COc1cc2oc(=O)ccc2cc1O` [Isoscopoletin], with 0.7%.
Consider `Cc1cc(O)c2c(c1)C(=O)c1cc(O)cc(O[C@@H]3O[C@H](CO)[C@@H](O)[C@H](O)[C@H]3O)c1C2=O` [Emodin-8-glucoside], for which the “OC43 Inhibition rate” value is given as -0.1%.
For the compound `CC1(C)[C@@H](O[C@H]2O[C@H](C(=O)O)[C@@H](O)[C@H](O)[C@H]2O[C@@H]2O[C@H](C(=O)O)[C@@H](O)[C@H](O)[C@H]2O)CC[C@]2(C)[C@H]3C(=O)C=C4[C@@H]5C[C@@](C)(C(=O)O)CC[C@]5(C)CC[C@@]4(C)[C@]3(C)CC[C@@H]12` [Dipotassium glycyrrhizinate], the “OC43 Inhibition rate” value (OC43 Inhibition rate, 24 h) was determined as 5.1%.
As for `CCCCCCCCCCCCC/C=C/[C@@H](O)[C@@H](N)COP(=O)(O)O` [Sphingosine-1-phosphate], the “OC43 Inhibition rate” value is on record as -1.2%.
Take `C[C@H](CC[C@@H](O[C@@H]1O[C@H](CO[C@@H]2O[C@H](CO)[C@@H](O)[C@H](O)[C@H]2O)[C@@H](O)[C@H](O)[C@H]1O[C@@H]1O[C@H](CO)[C@@H](O)[C@H](O)[C@H]1O)C(C)(C)O)[C@H]1CC[C@@]2(C)[C@@H]3CC=C4[C@@H](CC[C@H](O[C@@H]5O[C@H](CO)[C@@H](O)[C@H](O)[C@H]5O)C4(C)C)[C@]3(C)[C@H](O)C[C@]12C` [Siamenoside I]: the “OC43 Inhibition rate” value is -0.1%.
Consider `Cc1ccn(C)n1` [1,3-Dimethylpyrazole], for which the “OC43 Inhibition rate” value was -0.1%.
Regarding `CC(C)=CCC[C@](C)(O)[C@@H]1CC=C(C)CC1` [alpha-Bisabolol], the “OC43 Inhibition rate” value (OC43 Inhibition rate, 24 h) is recorded as -0.2%.
In the case of `Nc1ncnc2c1ncn2[C@@H]1C[C@H](CO)[C@@H](O)[C@H]1O` [Aristeromycin], the “OC43 Inhibition rate” value is given as 53.9%.
On the same count and under the same terms, under `C[C@@H]1CC[C@]2(C(=O)O)CC[C@]3(C)C(=CC[C@@H]4[C@@]5(C)C[C@@H](O)[C@H](O)C(C)(C)[C@@H]5CC[C@]43C)[C@@H]2[C@]1(C)O` [Tormentic acid] stands -9.7%.
With `C1CCN2C[C@H]3C[C@H](CN4CCCC[C@@H]34)[C@H]2C1` [(+)-Sparteine], the “OC43 Inhibition rate” value (OC43 Inhibition rate, 24 h) is reported as 6%.
With `OC[C@H]1O[C@@](CO)(OC[C@@]2(OC[C@@]3(O[C@H]4O[C@H](CO)[C@@H](O)[C@H](O)[C@H]4O)O[C@H](CO)[C@@H](O)[C@@H]3O)O[C@H](CO)[C@@H](O)[C@@H]2O)[C@@H](O)[C@@H]1O` [Nystose], the “OC43 Inhibition rate” value is recorded as -0.8%.
